From publication PMC11932694
No constants are given. Whether binding was seen depends on the method and setting. Binding seen in cells or lysates may run through a third protein. Sequences can lack the tags named with a protein.

Molecular target: T1, Flag-ORMDL3 (human) (UniProt Q8N138)
T1 sequence: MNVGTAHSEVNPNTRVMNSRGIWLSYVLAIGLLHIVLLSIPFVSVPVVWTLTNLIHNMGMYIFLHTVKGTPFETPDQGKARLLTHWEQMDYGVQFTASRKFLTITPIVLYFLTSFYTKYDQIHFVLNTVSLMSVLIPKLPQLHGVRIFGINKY
Assay: co-IP; HEK293T cells co-transfected with MAVS truncations and EV or Flag-ORMDL3; lysates immunoprecipitated with anti-Flag antibody, blots with anti-HA and anti-Flag

“MAVS with the transmembrane domain (TM) deleted (domain or fragment)” was tested, and the binding was “no binding”.
